The text below walks through data of patent CN115028729A.

No constants are given. Whether binding was seen depends on the method and setting. Some results given as binding are weak or reduced against the parent protein; the word gives no strength.

The target in assay [1] is T1, 重组尿酸氧化酶 (recombinant urate oxidase, made by the method of Chinese patent ZL02819387.3) (产朊假丝酵母 (Candida utilis)) (UniProt P78609).
T1 sequence (looked up): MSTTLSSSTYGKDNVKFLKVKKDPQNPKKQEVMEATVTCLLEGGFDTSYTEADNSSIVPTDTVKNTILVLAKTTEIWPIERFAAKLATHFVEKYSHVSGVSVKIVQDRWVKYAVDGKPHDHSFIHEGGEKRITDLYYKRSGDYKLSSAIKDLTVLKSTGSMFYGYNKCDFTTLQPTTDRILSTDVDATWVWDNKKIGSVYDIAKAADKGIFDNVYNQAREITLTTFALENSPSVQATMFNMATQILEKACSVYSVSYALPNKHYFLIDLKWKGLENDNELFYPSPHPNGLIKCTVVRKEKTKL
Kind of assay: MSD bridging electrochemiluminescence ADA assay; biotin-urate oxidase on a streptavidin plate, ruthenium-labelled urate oxidase for detection.

The target in assay [2] is T1, 重组尿酸氧化酶 (recombinant urate oxidase, made by the method of Chinese patent ZL02819387.3) (产朊假丝酵母 (Candida utilis)). Kind of assay: western blot; recombinant urate oxidase on 10% SDS-PAGE, transferred to PVDF, HRP goat anti-mouse secondary, ECL. On the technique in general: Immunoblotting shows a protein as a band on a membrane.

B1: 抗尿酸氧化酶单克隆抗体 (monoclonal antibody secreted by hybridoma cell line 29D7F2A8, CGMCC No.21493) (antibody, mouse IgG2a, kappa, V domains shown)
VH: QVQLQQPGAELVKPGTSVKLSCKTSGYTFTNYWIHWVKQGPGQGLEWIGEIDPSDSYTIYSQKFKGKATLTVDKFSSTAYMHLSSLTSEDSAVYYCARGDYALSWGQGTLVTVSA
VL: DIVMTQSHRFMSTSVGDRVSLTCKASQDVSTAVAWYQQKPGQSPKLLIYSASYRYTGVPDRFTGSGSGTDFTFTVSSVQAEDLAVYYCQQHYGAPYTFGGGTKLEIKR
For B1, the binding entry in assay [1] and in assay [2] was “binds” in each case.
